According to patent US9416347B2, “Method of treating bacterial contamination in a microalgae culture with pH shock” (Heliae Development LLC, priority 2014, dated 2016):

Details: acetic acid/pH treated culture

## CC(=O)O [Acetic acid, acetic acid]
End of experiment
  residual acetate higher than the untreated cultures: 5200 mg/L
End of experiment (96 h)
  residual acetate in the culture: 9650 ± 150 mg/L
